These results are taken from paper PMC11289641.

No constants are given. Whether binding was seen depends on the method and setting. For some of these results: Binding seen in cells or lysates may run through a third protein. Some results given as binding are weak or reduced against the parent protein; the word gives no strength. Sequences can lack the tags named with a protein.

Experiment [1] concerns the target T1, EVOLUTIONARILY CONSERVED C-TERMINAL REGION 8 (ECT8), yeast two-hybrid fusion (Arabidopsis thaliana) (UniProt Q9FPE7).
T1 sequence: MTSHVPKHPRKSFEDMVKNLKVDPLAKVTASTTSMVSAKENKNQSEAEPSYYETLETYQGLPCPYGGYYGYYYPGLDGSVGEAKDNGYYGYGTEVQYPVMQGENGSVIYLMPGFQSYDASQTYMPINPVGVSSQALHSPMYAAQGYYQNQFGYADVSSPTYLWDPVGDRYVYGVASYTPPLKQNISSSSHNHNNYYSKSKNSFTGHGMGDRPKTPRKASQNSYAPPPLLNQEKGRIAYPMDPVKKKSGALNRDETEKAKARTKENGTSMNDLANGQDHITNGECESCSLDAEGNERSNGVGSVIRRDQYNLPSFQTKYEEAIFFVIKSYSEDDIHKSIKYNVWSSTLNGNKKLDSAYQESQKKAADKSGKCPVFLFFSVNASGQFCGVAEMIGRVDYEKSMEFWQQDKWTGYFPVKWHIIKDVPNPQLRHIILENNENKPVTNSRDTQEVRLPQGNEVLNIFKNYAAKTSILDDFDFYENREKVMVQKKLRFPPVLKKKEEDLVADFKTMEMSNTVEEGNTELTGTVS
Briefly: two-hybrid; GAL4 AD (pGADT7) and BD (pGBKT7) fusions cotransfected into yeast AH109; interactions evaluated on quadruple dropout medium YSD-Leu-Trp-Ade-His, 28 °C, 2 d.

The target of experiment [2] is T2, ECT8-NYFP (Arabidopsis thaliana) (UniProt Q9FPE7).
T2 sequence: T1 sequence
Nature of the experiment: split reporter; BiFC with split YFP: ECT8-NYFP and DCP5-CYFP coinfiltrated (A. tumefaciens GV3101, p19) into 4-wk-old N. benthamiana leaves; confocal imaging after 24 to 48 h.

B1: … 5 (DCP5), yeast two-hybrid fusion (protein, UniProt Q9C658 1-611)
chain: MAADNTGSKSSSAADSYVGSLISLTSKSEIRYEGILYNINTDESSIGLQNVRSFGTEGRKKDGPQVPPSDKVYEYILFRGTDIKDLQVKASPPVQPPASTINNDPAIIQSHYPSPMPTSGSLPSTASGSLPDISSHNGQPGQHGMGFQNAMPLYQPGGNLGSWGASPQPPMYWQGFYTPPPNGLPQLHQQSLIRPPHGLPMPNSLQQPLQYPNFNTPPPPTGSSSLQGSSLPEAPSSLFPFSTSSQMLAPSSLPFPGLPPVTLSSSLQSTLQSAPSPSLASEMAPPLLSNKAPITAPPTLPQDTNLLSFSLSTTRATEASTGLPLSNKPSVVTGPISPPQTTPLTSAPVAGVSSSISQDKPKPLLVTPGQLLQSGSSAVSLSPPSTNADKDVEVVQVSSSAGLEQSVPVTSEAQPPILPLPSSARPTQKPNGHSFPNHNGYRGRGRGRGRGAGRSHQVMKFTEDFDFTAMNEKFNKDEVWGHLGKSTTLDGDEDDDSPTVDEAELPKIEAKPVYNKDDFFDSLSSNTIDRESQNSRPRFSEQRKLDTETFGEFSRFRGGRGGRGGYGRNNGYSRGGYGGRGYGGYGGRGGGGGGYGYGGRGQGRGVSNRTT
As to B1, the binding result in experiment [1] is “binds”.

B2: DCP5-CYFP (protein, UniProt Q9C658 1-611)
chain: B1 chain
As for B2, in experiment [2], the binding result is on record as “binds”.

B3: VARICOSE (VCS), yeast two-hybrid fusion (protein, UniProt Q9LTT8 1-1344)
chain: MASSPGNTNPHNTPPFDLGILFKPSSNPYPPPAASYPPPTGPFLHNQYDQQHYAPPGISAQPSPVTQQQQDVSSSSAATNLHPQRTLSYPTPPLNLQSPRSNHNPGTHILALLNNTNNGAPVANQEPSHQLPVVNHNEIARSFPGGSGPIRVPSCKLPKGRRLIGEHAVYDVDVRLQGEIQPQLEVTPITKYGSDPQLVVGRQIAVNKVYICYGLKGGNIRVLNINTALRSLFRGHSQRVTDMAFFAEDVDMLASVSLDGKVFVWKISEGSEGEDQPQITGKIVLALQILGEEDTKHPRVCWHCHKQEILVVSIGKHVLRIDTTKVGRGEVFSAEAPLQCPLDKLIDGVQIVGKHDGEVTDLSMCQWMTTRLVSSSVDGTIKIWQDRKAQPLVVLRPHDGHPVSSATFVTSPERPDHIILITGGPLNREMKIWVSAGEEGWLLPADAESWRCTQTLDLKSSTEPRAEEAFFNQVIALSEAGLLLLANAKRNALYAVHLDYGSSPVGTRMDYLSEFTVTMPILSFIGTNDPPEEPIVKVYCVQTLAIQQYTLDLCLCLPPPIENMGLEKSDSSVSREANLVEGMSEPSGLKPTDLPSVDSVPKPSIIVNRSESANKLSFPSAEATSQAIVPPNGEPKTSGLPSQTSGAGSAYATLPQLPLSPRLSSKLSGYHTPVEAIEPVIPHHELGGKTPSADYSVDRQMDAVGERNLDVSSVEEISRSKDSNVTPDDDVSGMRSPSAFFKHPTHLVTPSEILMGVSSAEASITTEDRRDRDANIQDVNNDPRDTEVEVKEISEARSTQNGEINDHDETENCTSENREKVFCSQVSNLSTEMARDCYPSTEGTFIPGESKAYGQPIKAGDESGVDSRGGPAKLLKGKKQKAKNSQGPGLSSTSSNVANLADSFNEQSQSLSHPMTDLLPQLLAMQETMNQVMASQKEMQRQLSNAATGPIGKESKRLEVALGRMIEKSSKSNADALWARIQEETVKNEKALRDHAQQIVNATTNFMSKELNAMFEKTIKKELAAIGPALARSVVPVIEKTVSSAITESFQRGIGDKAVNQLDKSVNIKLEATVARQIQAQFQTSGKQALQEGLRSSVESSVIPSFEKACKAMFDQIDSAFQKGIAEHTNAAQQRFDSGHSQLAHTLKESITSASSVAQALSRELAETQRNLLALAAAGANSGGSNSLVTQLSGGPLGALLEKVEAPMDPTTELSRLISERKYEESFTSALQRSDVSIVSWLCSQVDLRGLLAMNPLPLSQGVLLSLLQQLACDISKDTSRKLAWMTDVVAAINPSDQMIAVHARPIFEQVYQILHHHRNAPGSDVSAIRLIMHVINSMLMGCK
As for B3, in experiment [1], the binding result is listed as “binds”.

B4: ARGONAUTE 1 (AGO1), yeast two-hybrid fusion (protein, UniProt O04379 1-1048)
chain: MVRKRRTDAPSEGGEGSGSREAGPVSGGGRGSQRGGFQQGGGQHQGGRGYTPQPQQGGRGGRGYGQPPQQQQQYGGPQEYQGRGRGGPPHQGGRGGYGGGRGGGPSSGPPQRQSVPELHQATSPTYQAVSSQPTLSEVSPTQVPEPTVLAQQFEQLSVEQGAPSQAIQPIPSSSKAFKFPMRPGKGQSGKRCIVKANHFFAELPDKDLHHYDVTITPEVTSRGVNRAVMKQLVDNYRDSHLGSRLPAYDGRKSLYTAGPLPFNSKEFRINLLDEEVGAGGQRREREFKVVIKLVARADLHHLGMFLEGKQSDAPQEALQVLDIVLRELPTSRYIPVGRSFYSPDIGKKQSLGDGLESWRGFYQSIRPTQMGLSLNIDMSSTAFIEANPVIQFVCDLLNRDISSRPLSDADRVKIKKALRGVKVEVTHRGNMRRKYRISGLTAVATRELTFPVDERNTQKSVVEYFHETYGFRIQHTQLPCLQVGNSNRPNYLPMEVCKIVEGQRYSKRLNERQITALLKVTCQRPIDREKDILQTVQLNDYAKDNYAQEFGIKISTSLASVEARILPPPWLKYHESGREGTCLPQVGQWNMMNKKMINGGTVNNWICINFSRQVQDNLARTFCQELAQMCYVSGMAFNPEPVLPPVSARPEQVEKVLKTRYHDATSKLSQGKEIDLLIVILPDNNGSLYGDLKRICETELGIVSQCCLTKHVFKMSKQYMANVALKINVKVGGRNTVLVDALSRRIPLVSDRPTIIFGADVTHPHPGEDSSPSIAAVVASQDWPEITKYAGLVCAQAHRQELIQDLFKEWKDPQKGVVTGGMIKELLIAFRRSTGHKPLRIIFYRDGVSEGQFYQVLLYELDAIRKACASLEAGYQPPVTFVVVQKRHHTRLFAQNHNDRHSVDRSGNILPGTVVDSKICHPTEFDFYLCSHAGIQGTSRPAHYHVLWDENNFTADGLQSLTNNLCYTYARCTRSVSIVPPAYYAHLAAFRARFYMEPETSDSGSMASGSMARGGGMAGRSTRGPNVNAAVRPLPALKENVKRVMFYC
For the molecule B4, the binding result in experiment [1] was “no binding”.
